Test results: paper PMC13163806
Results are given in words; binding and its absence hold for the method and conditions named. In cells and extracts the contact can be indirect. Where a sequence is shown, tags or fusion partners need not be part of it. Each block holds one molecule with its values, some of them ahead of it.

Protein sequences, listed by entry. Tags and fused reporters are not part of them.
UniProt Q9DCH4: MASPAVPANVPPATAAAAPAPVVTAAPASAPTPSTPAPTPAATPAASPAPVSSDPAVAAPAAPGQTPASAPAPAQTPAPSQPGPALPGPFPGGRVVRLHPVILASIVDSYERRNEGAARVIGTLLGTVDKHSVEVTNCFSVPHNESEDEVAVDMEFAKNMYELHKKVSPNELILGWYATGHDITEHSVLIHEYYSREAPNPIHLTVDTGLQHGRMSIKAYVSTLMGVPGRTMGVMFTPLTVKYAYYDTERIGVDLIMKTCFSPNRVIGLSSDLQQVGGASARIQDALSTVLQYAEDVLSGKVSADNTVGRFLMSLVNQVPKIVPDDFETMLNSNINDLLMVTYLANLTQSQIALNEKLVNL

Experiments:
[1] = target: T1, FLAG-PDCD4 expressed in MEFs (UniProt Q53EL6); test: co-IP; FLAG co-IP from wild-type MEFs and S6K1 and 2 double knockout MEFs expressing FLAG-PDCD4 or FLAG-tag; Western blot
T1 sequence: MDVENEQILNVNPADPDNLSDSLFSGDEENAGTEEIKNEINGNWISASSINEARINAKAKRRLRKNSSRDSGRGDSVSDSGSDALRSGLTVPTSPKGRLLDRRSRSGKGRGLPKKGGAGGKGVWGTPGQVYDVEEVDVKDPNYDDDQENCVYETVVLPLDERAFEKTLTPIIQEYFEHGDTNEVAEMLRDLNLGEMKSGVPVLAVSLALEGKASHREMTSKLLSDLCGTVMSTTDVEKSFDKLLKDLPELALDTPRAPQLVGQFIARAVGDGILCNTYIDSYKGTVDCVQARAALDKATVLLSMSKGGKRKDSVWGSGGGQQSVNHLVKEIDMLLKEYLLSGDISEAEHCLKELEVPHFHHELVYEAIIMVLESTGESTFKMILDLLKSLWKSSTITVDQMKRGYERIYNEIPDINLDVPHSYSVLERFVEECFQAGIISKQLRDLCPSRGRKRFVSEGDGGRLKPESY

[2] = target: T2, PAIP1, endogenous (human (endogenous in U343)) (UniProt Q9H074); test: co-IP; reciprocal IP: eIF3F antibody (PAIP1 antibody as negative control) on protein G Dynabeads, lysate prepared as for FLAG-immunoprecipitation (U343 transfected with FLAG-PDCD4, formaldehyde treated, RIPA), 4 h at 4 °C; Western blot
T2 sequence: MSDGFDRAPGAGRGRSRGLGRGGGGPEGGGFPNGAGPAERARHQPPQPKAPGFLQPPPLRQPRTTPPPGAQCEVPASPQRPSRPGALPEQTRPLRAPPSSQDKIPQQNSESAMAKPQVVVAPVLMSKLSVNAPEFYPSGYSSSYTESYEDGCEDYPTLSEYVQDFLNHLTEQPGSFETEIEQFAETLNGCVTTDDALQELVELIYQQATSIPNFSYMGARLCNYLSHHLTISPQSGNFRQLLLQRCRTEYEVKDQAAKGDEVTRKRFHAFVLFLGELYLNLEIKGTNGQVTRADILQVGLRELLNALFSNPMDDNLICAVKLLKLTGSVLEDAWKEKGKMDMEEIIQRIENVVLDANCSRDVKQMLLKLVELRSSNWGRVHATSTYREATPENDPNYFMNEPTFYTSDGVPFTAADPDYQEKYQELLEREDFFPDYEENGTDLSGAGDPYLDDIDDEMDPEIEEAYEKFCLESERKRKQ

binding [1]: no binding
Molecule: eIF3F, endogenous in MEFs (from UniProt Q9DCH4 1-361)

binding [2]: no binding
B1: FLAG-PDCD4 expressed in U343 cells (protein, UniProt Q53EL6 1-469)
chain: T1 sequence
